From PubChem BioAssay AID624297 (National Center for Advancing Translational Sciences (NCATS), 2012)
Out of some 340,000 compounds screened, about 6,200 (1.8%) were called active. Inconclusive means that the source gave no clear call. Such entries were picked first, then a sample of the others. The call rests on the fitted dose curve; in most records, active means well fitted activation curve with a large enough effect; inconclusive means small, poorly fitted or top-dose-only effect; inactive means no such curve, though single readings can be large or run the other way. A potency beside an inconclusive call is a rough fit, not a confirmed value.

test: A quantitative high throughput screen for small molecules that induce DNA re-replication in SW480 colon adenocarcinoma cells.; further: nearly all actives have a fitted effect of over 55% in size; on re-replication activation: % of control where 0% means no effect; details: Hoechst DNA content imaging, 48 h; re-replication activation: at 46.1 µM (top of the series) unless noted
Procedure, shortened: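 Compounds, transferred as 23 nL by pin tool, were incubated with cells for 48 hr; DNA content per nucleus was then quantified by Hoechst staining and fluorescence plate imaging.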
Potency means the concentration at half of the fitted maximal effect.

SMILES	Potency	re-replication activation
Cc1cc(C)c2c(N)c3cccc(C)c3nc2n1	active: 16.4 µM	
N/C(=N\OC(=O)c1ccc2ccccc2c1)c1ccccn1	inconclusive: 20.6 µM [activator, single point]	
CCN1CCN(c2cc3c(nn2)Oc2ccccc2N3C)CC1	inconclusive: 23.1 µM [activator, partial curve, poor fit]	
O=C(NCc1ccco1)/C(=C/C=C\c1ccccc1)NC(=O)c1ccc(Br)o1	inconclusive: 6.51 µM [activator, single point]	
COc1ccc(Cn2c(=N)c(C(=O)NCC3CCCO3)cc3c(=O)n4ccccc4nc32)cc1 (stereo not drawn)	inconclusive: 23.1 µM [activator, partial curve, poor fit]	
C#CCOc1ccc(/C=C2/C(=O)ON=C2C)cc1Br		inactive: 18.9%
c1ccc(-c2ncc(-c3ccn[nH]3)s2)cc1		inactive: -0.332%
Cc1nc2sc(C#N)c(N)c2c2c1CCCC2		inactive: -4.35% [at 9.22 µM]
Fc1ccccc1N1CCN(Cc2cc(-c3ccccc3)on2)CC1		inactive: 5.32%
CC(NCC1COc2ccccc2O1)C(=O)NCc1ccccc1 (stereo not drawn)	inconclusive: 0.731 µM [activator, full curve, poor fit]	
N/C(=N\OC(=O)c1ccc(Cl)cc1)c1ccn[nH]1		inactive: -5.2%
COCCN(C(=O)C(C)C)c1nnc(-c2ccc(C(C)(C)C)cc2)s1	inconclusive: 23.1 µM [activator, single point]	
COc1cc(/C=C(\C#N)C(=O)Nc2ccccn2)ccc1O		inactive: 4.75%
O=C(c1ccc(Br)cc1)N(Cc1nc2ccccc2c(=O)[nH]1)C1CCCC1	inconclusive: 0.116 µM [activator, full curve, poor fit]	
CC(=O)N1CCc2cc(S(=O)(=O)NCCC(=O)NC3CCCCCC3)ccc21	inconclusive: 29.1 µM [activator, single point]	
COc1ccc(C)cc1S(=O)(=O)N(CC(=O)Nc1cccc([N+](=O)[O-])c1)c1cc(C)cc(C)c1	inconclusive: 32.6 µM [activator, partial curve, poor fit]	
CCCCCCc1cc2cc(C(=O)NCc3ccccc3)c(=N)oc2cc1O	inconclusive: 14.6 µM [activator, partial curve]	
O=C(Cc1ccccc1)N[C@@H]1c2ccccc2CC[C@@H]1OCc1ccccc1		inactive: -2.4%
C/C(CC(=O)Nc1ccc(Cl)cc1Cl)=N\NC(N)=S	inconclusive: 18.4 µM [activator, single point]	
O=C(Cn1cncc1-c1ccc([N+](=O)[O-])cc1)Nc1ccccc1F	inconclusive: 29.1 µM [activator, single point]	
c1ccc(-n2cc(CN3CCCC(CN4CCCC4)C3)c(-c3ccc4c(c3)OCO4)n2)cc1 (stereo not drawn)	inconclusive: 18.4 µM [activator, single point]	
Cc1cc(NC(=O)CC#N)n(-c2nc3ccccc3[nH]2)n1	inconclusive: 29.1 µM [activator, single point]	
CCOc1ccc(C(=O)OCC(=O)NC2CCCCCCC2)cc1		inactive: 36.6%
COc1cc2c(cc1OC)C(COc1ccc(F)cc1)N(C(=O)c1ccco1)CC2 (stereo not drawn)	inconclusive: 20.6 µM [activator, single point]	
Cn1cccc1Cc1nnc(SCC(=O)Nc2nc3ccccc3s2)n1CCc1ccccc1	inconclusive: 23.1 µM [activator, single point]	

SMILES	Potency	re-replication activation
C=CCSc1nnc(-c2c[nH]c3ccccc23)n1CC		inactive: 2.03%
O=C(NCC(=O)N1CCCC(C(F)(F)F)C1)c1cccs1 (stereo not drawn)	inconclusive: 6.51 µM [activator, partial curve, poor fit]	
Cc1ccc(NC(=O)c2ncn(CCCN3CCN(c4ccccn4)CC3)n2)cc1C	inconclusive: 1.16 µM [activator, single point]	
O=C(Nc1nc(-c2ccccc2)cs1)c1cccc([N+](=O)[O-])c1		inactive: -2.3%
CCCCN(C(=O)Cn1ncc(Cl)c(Cl)c1=O)c1c(N)n(CC(C)C)c(=O)[nH]c1=O	inconclusive: 29.1 µM [activator, single point]	
O=C(COC(=O)c1cccc(-n2cnnn2)c1)c1ccc(F)cc1		inactive: 0.593%
Cc1ccc(N2C(=O)CC(Sc3nc4ccccc4o3)C2=O)cc1Cl (stereo not drawn)	inconclusive: 29.1 µM [activator, single point]	
O=C1CCCC(O)=C1C=NCc1ccccc1		inactive: -2.98%
Cc1cccc(CSCc2ccc(C(=O)O)o2)c1	inconclusive: 6.51 µM [activator, single point]	
CC1CCN(C(=O)COc2coc(CN3CCc4ccccc43)cc2=O)CC1	inconclusive: 13 µM [activator, partial curve, poor fit]	
Cc1ccc(NC(=O)CNS(=O)(=O)c2cccs2)cc1F	inconclusive: 0.13 µM [activator, full curve, poor fit]	
CC(=O)/C(N=Nc1ccc(SC(F)F)cc1)=C(\C)O	active: 8.2 µM	
COc1cc2[nH]c(=S)n(CCN3CCOCC3)c(=O)c2cc1OC		inactive: -5.04%
CSc1cnn(Cc2ccccc2)c(=O)c1SCc1ccccc1	inconclusive: 23.1 µM [activator, single point]	
CCc1ccc(C2c3[nH]c4ccccc4c3CCN2C(=O)CN2CCN(CC)CC2)cc1 (stereo not drawn)	inconclusive: 16.4 µM [activator, single point]	
CC(C)(C)OC(=O)NC(Cc1ccccc1)C(=O)NCCCC(=O)O (stereo not drawn)	inconclusive: 16.4 µM [activator, partial curve, poor fit]	
CC(=O)c1cccc(CN2CCCC(N3CCN(c4ccccc4F)CC3)C2)c1 (stereo not drawn)		inactive: -0.371%
CC(=O)c1sc(-c2ccccc2)cc1NS(=O)(=O)c1ccc(C)cc1	inconclusive: 23.1 µM [activator, single point]	
Cc1csc(=O)n1CC(=O)OC(C)C(=O)Nc1ccc(N(C)C)cc1 (stereo not drawn)	inconclusive: 5.8 µM [activator, single point]	
Cc1cccc(NC(=O)CSc2n[nH]c(-c3ccncc3)n2)c1C		inactive: -6.45%
Cn1c(=O)c(C(=O)NNC(=O)c2ccccc2Cl)c(O)c2ccccc21	inconclusive: 29.1 µM [activator, single point]	
CC(C)OCCCNC(=S)N1CCC(C(=O)c2ccc(Cl)cc2)CC1		inactive: -0.185%
O=C(Nc1nnc(-c2ccco2)o1)c1ccc2ccccc2c1	inconclusive: 0.231 µM [activator, full curve]	
O=C(CSc1nc2ccc(Cl)cc2[nH]1)c1cccs1		inactive: -15.1%
NC(=O)c1oc2ccccc2c1NC(=O)C1COc2ccccc2O1 (stereo not drawn)		inactive: -7.34%

SMILES	Potency	re-replication activation
CC(C)C[C@H](NC(=O)C1(c2ccccc2)CCN(C(=O)[C@H]2CSCN2C(=O)OC(C)(C)C)CC1)C(=O)O	inconclusive: 0.517 µM [activator, partial curve, poor fit]	
CC(C)c1ccc(N2C(=O)CC(Sc3ncn[nH]3)C2=O)cc1 (stereo not drawn)	inconclusive: 18.4 µM [activator, partial curve, poor fit]	
Cc1ccc(NC(=O)COC(=O)c2ccc(Cl)nc2)cc1S(=O)(=O)N1CCCCC1		inactive: -21.7%
CN(C)CCCn1c2c3ccccc3ccc2c2oc(=O)c3ccccc3c21	active: 18.4 µM	
O=C(COc1ccccc1)n1nc(-c2ccc(Cl)cc2)nc1NCc1ccco1	inconclusive: 25.9 µM [activator, single point]	
CN1CCN(c2cc(-c3cc(O)c4ncccc4c3)ccn2)CC1	inconclusive: 18.4 µM [activator, single point]	
Cc1ccc(N2CCC(N3CCN(C)C(CCO)C3)CC2)cc1 (stereo not drawn)		inactive: -1.44%
CCCCn1nnc(NC(=S)NC(=O)c2ccc(-c3cccc(Cl)c3Cl)o2)n1		inactive: -5.03%
CCS(=O)(=O)N1CCC(C(=O)Oc2ccc(Cl)cc2)CC1		inactive: -0.229%
N#C/C(=C(/O)c1ccco1)c1nc2ccccc2s1	inactive	
CN(C)c1ccc(/C=C/C(=O)c2ccc3c(c2)OCO3)cc1	inconclusive: 31.6 µM [activator, single point]	
COc1cc(/C=C(\NC(C)=O)C(=O)NC(C)(C)C)ccc1OC(C)=O		inactive: -1.27%
O=C1Nc2c(Br)cccc2C1=O	inconclusive: 29.1 µM [activator, single point]	
Cc1cccc(-c2onc3ccc(C(=O)/C=C/N(C)C)cc23)c1	inconclusive: 2.59 µM [activator, full curve]	
Cn1c(Cc2ccccc2)nnc1SCC(=O)Nc1ccc(N2CCOCC2)cc1		inactive: -2.71%
CN1CCN(c2ccc([N+](=O)[O-])cc2S(=O)(=O)N2CCOCC2)CC1		inactive: 3.93%
CNC(=S)N(C)/N=C1/C(=O)N(Cc2c(Cl)cccc2Cl)c2ccccc21	inconclusive: 23.1 µM [activator, single point]	
Cc1csc(SCC(=O)Nc2cc(S(=O)(=O)N(C)C)ccc2C)n1		inactive: -118%
Cc1cnc(NC(=O)c2nn(C)cc2[N+](=O)[O-])s1	active: 3.66 µM	
O=c1oc2ccccc2c(NC2CCCCC2)c1NS(=O)(=O)c1ccc(Br)cc1	inconclusive: 18.4 µM [activator, single point]	
Cc1ccc2oc(-c3cccc(NC(=S)NC(=O)/C=C/c4ccco4)c3)nc2c1	inconclusive: 20.6 µM [activator, single point]	
COc1ccc(-c2n[nH]c(=S)n2/N=C/c2cccn2C)cc1		inactive: -2.61%
C[C@H](CO)N1C[C@H](C)[C@H](CN(C)Cc2ccncc2)Oc2ccc(NC(=O)Nc3ccc(C(F)(F)F)cc3)cc2CC1=O	inconclusive: 23.1 µM [activator, single point]	

Among those listed so far, 9 have fluorine.
SMILES	Potency	re-replication activation
Fc1ccccc1N1CCN(Cc2cc(-c3ccccc3)on2)CC1		inactive: 5.32%
O=C(Cn1cncc1-c1ccc([N+](=O)[O-])cc1)Nc1ccccc1F	inconclusive: 29.1 µM [activator, single point]	
COc1cc2c(cc1OC)C(COc1ccc(F)cc1)N(C(=O)c1ccco1)CC2 (stereo not drawn)	inconclusive: 20.6 µM [activator, single point]	
O=C(NCC(=O)N1CCCC(C(F)(F)F)C1)c1cccs1 (stereo not drawn)	inconclusive: 6.51 µM [activator, partial curve, poor fit]	
O=C(COC(=O)c1cccc(-n2cnnn2)c1)c1ccc(F)cc1		inactive: 0.593%
Cc1ccc(NC(=O)CNS(=O)(=O)c2cccs2)cc1F	inconclusive: 0.13 µM [activator, full curve, poor fit]	
CC(=O)/C(N=Nc1ccc(SC(F)F)cc1)=C(\C)O	active: 8.2 µM	
CC(=O)c1cccc(CN2CCCC(N3CCN(c4ccccc4F)CC3)C2)c1 (stereo not drawn)		inactive: -0.371%
C[C@H](CO)N1C[C@H](C)[C@H](CN(C)Cc2ccncc2)Oc2ccc(NC(=O)Nc3ccc(C(F)(F)F)cc3)cc2CC1=O	inconclusive: 23.1 µM [activator, single point]	

Entries of single compounds from above.
CC(=O)c1cccc(CN2CCCC(N3CCN(c4ccccc4F)CC3)C2)c1 (stereo not drawn) in the list: re-replication activation: inactive: -0.371%
CN(C)c1ccc(/C=C/C(=O)c2ccc3c(c2)OCO3)cc1 in the list: Potency: inconclusive: 31.6 µM [activator, single point]
